{"source": "PubChem BioAssay AID2685", "about": "(National Center for Advancing Translational Sciences (NCATS), 2010)", "note": "Screen size: about 320,000 compounds; about 2,100 (0.66%) were called active. Inconclusive results, whose numbers are uncertain, are shown with a selection of clear calls. Calls follow the shape of the dose curve; as a rule, active = well fitted inhibition curve with a large enough effect in the signal ratio, with a control signal flat (not every such curve was filed as active); inconclusive = small, poorly fitted or top-dose-only effect, or effect the other way, or a change in a side signal; inactive = flat fitted curve, though single readings scatter; the % refers to the signal ratio. Where the call is inconclusive, the potency comes from a doubtful curve fit. % is scaled to controls: 0 for no effect and ±100 for the full control effect; potency is read from the fitted curve at half-maximal effect.", "data": [{"test": "qHTS Assay for Lipid Storage Modulators in Drosophila S3 Cells", "settings": "BODIPY lipid droplet fluorescence, 18-24 h, cells fed with added oleic acid; lipid storage change, negative = inhibition: at 46.1 µM (top of the series) unless noted", "procedure,_shortened": "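Drosophila S3 cells got compounds at several concentrations plus oleic acid (400 uM solution). Laser-scanning cytometry with 488 nm excitation read lipid droplets at 500-530 nm and cells at 575-640 nm. Percent activity was relative to 20 uM Triacsin C.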", "values": [{"smiles": "CC(C)c1nc2cc(C(=O)N3CCNC(=O)C3c3ccc(F)cc3)ccc2o1", "note": "(stereo unspecified)", "Potency": "inconclusive: 0.58 µM [activator, single point]"}, {"smiles": "COc1ccc(C(C(=O)NC(C)(C)C)N(C(=O)CCC(=O)Nc2ccccn2)C2CCCCC2)cc1", "note": "(stereo unspecified)", "Potency": "inconclusive: 0.164 µM [activator, single point]"}, {"smiles": "O=C(O)C1CCCN(S(=O)(=O)c2ccc(Cl)s2)C1", "note": "(stereo unspecified)", "lipid storage change, negative = inhibition": "inconclusive: -18.3%"}, {"smiles": "CN(Cc1ccccc1)C(=O)COC(=O)CCN1C(=O)C2CC=CCC2C1=O", "note": "(stereo unspecified)", "lipid storage change, negative = inhibition": "inconclusive: 11.4%"}, {"smiles": "CN1C(=O)C2(C(C#N)=C(N)N(c3ccc(Cl)cc3)C3=C2C(=O)CC(C)(C)C3)c2ccccc21", "note": "(stereo unspecified)", "lipid storage change, negative = inhibition": "inconclusive: -162%"}, {"smiles": "COc1ccc(Cc2nnc(N/N=C/c3ccccc3O)[nH]c2=O)cc1OC", "Potency": "inconclusive: 9.2 µM [falling, partial curve, poor fit]"}, {"smiles": "CCN=C1SC(CC(=O)NCCc2ccc(OC)c(OC)c2)C(=O)N1CC", "note": "(stereo unspecified)", "lipid storage change, negative = inhibition": "inconclusive: 51.9%"}, {"smiles": "COc1ccc(C2=NCCn3nc4cc(OC)ccc4c32)cc1", "lipid storage change, negative = inhibition": "inactive: 3.18%"}, {"smiles": "Cc1cccc(N2CC(C(=O)NCC3COc4ccccc4O3)CC2=O)c1C", "note": "(stereo unspecified)", "Potency": "inconclusive: 20.6 µM [activator, single point]"}, {"smiles": "Cc1ccc(C)c(N(CC(=O)NC2CCCC2)C(=O)c2csnn2)c1", "lipid storage change, negative = inhibition": "inconclusive: 92%"}, {"smiles": "COCc1nnc(NC(=O)c2ccc(S(=O)(=O)N(C)Cc3ccccc3)cc2)o1", "Potency": "inconclusive: 29.1 µM [falling, partial curve, poor fit]"}, {"smiles": "N#C/C(=C(/O)COc1ccccc1)c1nnc2n1CCCCC2", "lipid storage change, negative = inhibition": "inconclusive: -49%"}, {"smiles": "COc1ccc(-c2c(S(=O)(=O)c3ccccc3)cnn2-c2ccccc2)cc1", "lipid storage change, negative = inhibition": "inconclusive: 8.98%"}, {"smiles": "Cc1nn(CC(N)=O)c(=O)c2ccccc12", "Potency": "inconclusive: 0.13 µM [falling, full curve, poor fit]"}, {"smiles": "CSc1nc2nccc(-c3ccc4c(c3)OCO4)n2n1", "lipid storage change, negative = inhibition": "inconclusive: 4.2%"}, {"smiles": "NC(Cc1ccccc1)C(=O)N1CCCCC1", "note": "(stereo unspecified)", "lipid storage change, negative = inhibition": "inconclusive: 36.4%"}, {"smiles": "COCCn1c(SCC(=O)Nc2nnc(C)s2)nnc1-c1cc2ccccc2cc1O", "lipid storage change, negative = inhibition": "inconclusive: -22.1%"}, {"smiles": "CC1=C(C(=O)Nc2ccc(C)cc2C)C(c2ccc(C)o2)NC(=S)N1", "note": "(stereo unspecified)", "lipid storage change, negative = inhibition": "inconclusive: 49.4%"}, {"smiles": "CCN(C(=O)COC(=O)CCOc1ccccc1)c1c(N)n(Cc2ccccc2)c(=O)[nH]c1=O", "lipid storage change, negative = inhibition": "inactive: 6.7%"}, {"smiles": "COc1ccc(-c2nc(CS(=O)CC(=O)NCCC3=CCCCC3)c(C)o2)cc1", "note": "(stereo unspecified)", "lipid storage change, negative = inhibition": "inconclusive: -0.157% [at 9.22 µM]"}, {"smiles": "Cc1ccccc1OCc1nc2ccccc2n1C", "Potency": "inconclusive: 16.4 µM [falling, single point]"}]}]}
